# Reference: PubChem BioAssay (Tox21)
# Protein sequences, listed by entry. Tags and fused reporters are not part of them. Lines headed by an entry give the natural chain unless they say otherwise; changes in a name come on top.
# UniProt P11473: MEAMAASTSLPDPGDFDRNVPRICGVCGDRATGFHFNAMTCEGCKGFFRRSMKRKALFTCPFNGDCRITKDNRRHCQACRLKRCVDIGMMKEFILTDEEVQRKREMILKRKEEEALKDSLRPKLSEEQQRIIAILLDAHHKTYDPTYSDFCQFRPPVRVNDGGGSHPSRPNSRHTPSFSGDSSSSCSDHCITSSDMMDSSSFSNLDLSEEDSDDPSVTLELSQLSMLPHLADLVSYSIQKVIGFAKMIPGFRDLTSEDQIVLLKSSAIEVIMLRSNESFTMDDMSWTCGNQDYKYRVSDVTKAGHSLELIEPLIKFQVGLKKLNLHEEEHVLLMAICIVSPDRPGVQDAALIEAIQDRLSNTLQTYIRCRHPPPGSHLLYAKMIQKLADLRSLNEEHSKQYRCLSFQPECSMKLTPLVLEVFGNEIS
# Values joined by “and” are separate entries in the source; they are usually repeats but may differ in a detail not shown here. Equal entries are not always repeated. The shares of active, inactive and inconclusive entries below differ from those in the screen. A potency beside an inconclusive call is a rough fit, not a confirmed value. Active and inactive are the calls of the source. Unless noted, the call rests on the fitted dose curve; in most records, active means well fitted cell-killing curve with a large enough effect in the repeat runs; inconclusive means weak or mixed curves, or effect the other way; inactive means no such curve, though single readings can be large or run the other way.
# Molecular target: Vitamin D3 receptor (Homo sapiens) (UniProt P11473)
# Test: qHTS assay to identify small molecule antagonists of the vitamin D receptor (VDR) signaling pathway (AID 743223; active means well fitted inhibition curve with a large enough effect in the signal ratio in the repeat runs, not every such curve was filed as active; inconclusive means weak or mixed curves, or effect the other way; inactive means no such curve, though single readings can be large or run the other way; the % refers to the signal ratio)
# Conditions: VDR-UAS-bla HEK293T, beta-lactamase FRET ratio, 16 h; activity change, negative = inhibition: at 61 µM (top of the series) unless noted
# Method in brief: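 Inhibition of agonist-driven VDR signalling is scored in VDR-bla cells: 3 nM final 1alpha,25-dihydroxyvitamin D3 plus compound, 16 h at 37C, then beta-lactamase detection by FRET substrate fluorescence after 2 h.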
# On the % scale 0 is the no-effect control and ±100 the full control effect; potency means the concentration at half of the fitted maximal effect.
Structure (SMILES),"activity change, negative = inhibition",Potency
CC(C)(Cl)[N+](=O)[O-],inactive: 2.21% [at 78.8 µM],
Nc1ccccc1Cl,,"inconclusive: 0.188 µM [activator, partial curve, poor fit]"
CCCCC(CC)CO[N+](=O)[O-] (stereo not given),inconclusive: 6.47%,
CC(=NC#N)N(C)Cc1ccc(Cl)nc1,inactive: 1.55%,
CN/C(=N\[N+](=O)[O-])NCC1CCOC1 (stereo not given),inactive: 0.741%,
O=[N+]([O-])c1ccccc1CCl,inconclusive: 19.5% [at 78.8 µM],
Cc1c(Cl)c(=O)oc2cc(OP(=O)(OCCCl)OCCCl)ccc12,,"inconclusive: 19 µM [fluorescent, partial curve]"
COc1cccc(C=O)c1,inconclusive: 10.1%,
CCOCN(C(=O)CCl)c1c(C)cccc1CC,,"inconclusive: 5.19 µM [fluorescent, full curve, poor fit]"

# System: not listed separately
# Test: qHTS assay to identify small molecule agonists of the vitamin D receptor (VDR) signaling pathway - cell viability counter screen (AID 743224); further: nearly all actives have a fitted effect of over 50% in size
# Conditions: VDR-bla HEK293T viability, CellTiter-Glo luminescence, 16 h; series mostly up to 62.6 µM; activity change, negative = cytotoxicity: at the top concentration
# Method in brief: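 Compounds were pin-transferred onto VDR-bla cells plated 4 h earlier; following 16 h incubation at 37C, cell viability was quantified by CellTiter-Glo luminescence after 30 min at room temperature.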
Structure (SMILES),Potency,"activity change, negative = cytotoxicity"
CCC[N+]1(C)CCCC1,inactive,
CC1OC(C)OC(C)O1 (stereo not given),inactive,
CCC(C)Nc1c([N+](=O)[O-])cc(C(C)(C)C)cc1[N+](=O)[O-] (stereo not given),"inconclusive: 54.9 µM [cytotoxic, single point]",
BrCC(Br)C1CCC(Br)C(Br)C1 (stereo not given),"inconclusive: 54.7 µM [cytotoxic, partial curve, poor fit]",
Nc1cc(Cl)ccc1Cl,,inactive: 0.306%

# System: not listed separately
# Test: qHTS assay to identify small molecule antagonists of the vitamin D receptor (VDR) signaling pathway - cell viability counter screen (AID 743225); further: nearly all actives have a fitted effect of over 50% in size
# Conditions: VDR-bla HEK293T viability, CellTiter-Glo luminescence, 16 h; viability change, negative = cytotoxic: at 61 µM (top of the series) unless noted
# Method in brief: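 Compounds were pinned onto VDR-bla HEK 293T cells together with 1-alpha,25-dihydroxyvitamin D3 at 3 nM final. After 16 h at 37C and 5% CO2 plus the reporter readout, cell viability was measured by CellTiter-Glo luminescence (30 min, room temperature).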
Structure (SMILES),Potency,"viability change, negative = cytotoxic"
CC1OC(C)OC(C)O1 (stereo not given),"inconclusive: 3.01 µM [rising, full curve, poor fit]",
CC(COc1ccc(Oc2ccccc2)cc1)Oc1ccccn1 (stereo not given),"inconclusive: 12.3 µM [cytotoxic, single point]",
CCC(C)Nc1c([N+](=O)[O-])cc(C(C)(C)C)cc1[N+](=O)[O-] (stereo not given),,inactive: 16.9%
O=[N+]([O-])c1ccccc1CCl,,inactive: 18.3% [at 78.8 µM]
CCc1ccc(C(=O)NN(C(=O)c2cc(C)cc(C)c2)C(C)(C)C)cc1,"inconclusive: 1.1 µM [cytotoxic, single point]",
CCOCN(C(=O)CCl)c1c(C)cccc1CC,"inconclusive: 54.9 µM [cytotoxic, single point]",

# System: not listed separately
# Test: qHTS assay to identify small molecule agonists of the endoplasmic reticulum stress response signaling pathway (AID 1159516; active means well fitted activation curve with a large enough effect in the signal ratio in the repeat runs, not every such curve was filed as active; inconclusive means weak or mixed curves, or effect the other way; the % refers to the signal ratio)
# Conditions: ESRE-bla HeLa, ER stress beta-lactamase reporter, 5 h; activation: at 61 µM (top of the series) unless noted
# Method in brief: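 Using a HeLa line with an ESRE-driven beta-lactamase gene, agonist activity was measured by FRET substrate fluorescence (460 and 530 nm emission) after cells were treated with compounds for 5 hr at 37 C and 5% CO2.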
Structure (SMILES),Potency,activation
CCC[N+]1(C)CCCC1,inactive,
CN(C)P(=O)(N(C)C)N(C)C,"inconclusive: 1.55 µM [rising, partial curve]",
[N-]=[N+]=[N-],inactive,
COP(=O)(OC)OC,"inconclusive: 2.21 µM [falling, single point]",
CC(C)(Cl)[N+](=O)[O-],"inconclusive: 61.9 µM [rising, single point]",
c1ccc(CN2CCNCC2)cc1,,inconclusive: 2.08% [at 216 µM]
O=C/C=C/c1ccco1,,inactive: -3.02%
Nc1ccccc1Cl,,inactive: 3.11%
CCCCCCBr,,inactive: -0.468% [at 78.8 µM]
CC(Cc1ccc(OCC(=O)O)cc1)NCC(O)c1csc(C(F)(F)F)n1 (stereo not given),"inconclusive: 1.74 µM [rising, full curve, poor fit]",
CCCCC(CC)CO[N+](=O)[O-] (stereo not given),,inactive: -2.94%
O=C(O)CCCc1ccc(N(CCCl)CCCl)cc1,"inconclusive: 55.2 µM [fluorescent] and inconclusive: 24.5 µM [activator, single point]",
CC(C)N(CCC(C(N)=O)(c1ccccc1)c1ccccn1)C(C)C (stereo not given),inconclusive: 26.8 µM [fluorescent],
CC1OC(C)OC(C)O1 (stereo not given),inactive,
CC(Cl)C(C)Cl (stereo not given),,inactive: -0.0183%
CC(COc1ccc(Oc2ccccc2)cc1)Oc1ccccn1 (stereo not given),,inactive: -0.469%
CC(=NC#N)N(C)Cc1ccc(Cl)nc1,,inactive: 4%
CN(C)c1ccccc1,,inconclusive: 8.01% [at 78.8 µM]
O=C(O)CCCCCCNC1c2ccccc2CCc2ccccc21,"inconclusive: 0.0756 µM [rising, full curve, poor fit]",
CN/C(=N\[N+](=O)[O-])NCC1CCOC1 (stereo not given),,inactive: -0.565%

Structure (SMILES),Potency,activation
CCC(C)Nc1c([N+](=O)[O-])cc(C(C)(C)C)cc1[N+](=O)[O-] (stereo not given),,inconclusive: -4.41%
Cc1ncc(CNC(=O)N(CCCl)N=O)c(N)n1,,inactive: -1.7%
CCOC(=S)S,"inconclusive: 5.49 µM [rising, full curve]",
O=[N+]([O-])c1ccccc1CCl,"inconclusive: 0.0556 µM [falling, full curve]",
C=CCN=C=S,inactive,
BrCC(Br)C1CCC(Br)C(Br)C1 (stereo not given),,inconclusive: 0.636%
Nc1cc(Cl)ccc1Cl,"inconclusive: 0.0012 µM [rising, full curve, poor fit]",
C=C(C)C#N,"inconclusive: 0.184 µM [falling, single point]",
Cc1c(Cl)c(=O)oc2cc(OP(=O)(OCCCl)OCCCl)ccc12,,inconclusive: 2.21%
CCCN(CCC)c1c([N+](=O)[O-])cc(S(C)(=O)=O)cc1[N+](=O)[O-],,inconclusive: -2.39%
CCc1ccc(C(=O)NN(C(=O)c2cc(C)cc(C)c2)C(C)(C)C)cc1,,inactive: -1.53%
CC(=O)C(C)(C)C,"inconclusive: 3.6 µM [rising, full curve, poor fit]",
COc1cccc(C=O)c1,,inactive: 3.06%
CCCCP(CCCC)CCCC,,inactive: 0.276%
CCOCN(C(=O)CCl)c1c(C)cccc1CC,"inconclusive: 10.4 µM [fluorescent, full curve, poor fit] and inconclusive: 43.6 µM",
O=C(O)C(Br)(Br)Br,,inactive: -4.85%
COP(N)(=O)SC (stereo not given),inactive,
O=C1C[C@@H]2OCC=C3CN4CC[C@]56c7ccccc7N1[C@H]5[C@H]2[C@H]3C[C@H]46,inconclusive: 10.7 µM [activator],
O=C(O)c1ccccc1O,inactive,
O=S(=O)(Cl)Cl,,inactive: -0.962%
